{"source": "patent US20160298082A1", "about": "“METHOD FOR OBTAINING IMMUNO-STIMULATORY DENDRITIC CELLS” (TRANSIMMUNE AG, priority 2013, published 2016)", "key": {"MoDC": {"system": "MoDC", "test": "Cytokine quantification in MoDC supernatants after LPS stimulation (magnetic bead multiplex)", "assay_type": "cell-based, human", "details": "24 hr after LPS stimulation; vs untreated MoDC", "method": "Lymphocytes were treated with 8-MOP (100 ng/mL) and UVA (1 J/cm^2), washed with PBS, and co-cultured in complete media at 37° C. and 5% CO2 with either PUVA-treated or untreated-MoDC in a ratio of 5 or 10 lymphocytes to 1 MoDC. MoDC treated for 24 hr with 100 nM dexamethasone (Sigma) served as the positive control group. After 24 hr, cells were harvested and MoDC were re-purified. […] CD11c^+ MoDC were re-plated at 0.5-1.0×10^6 cells/mL in complete media and stimulated with 100 ng/mL LPS (Sigma). 24 hr after LPS stimulation, cells were harvested for RNA isolation and immunophenotyping, and supernatants were collected for cytokine quantification.\nCulture supernatants were analyzed in a multiplex format utilizing magnetic beads to IL-6, IL-8, IL-10, IL-12p70, IFN-γ, TNF-α, RANTES, MCP-1, and MIP-1β (BioRad Laboratories). For siRNA experiments, supernatants were analyzed with enzyme-linked immunosorbent assay (ELISA) kits for IL-10 (R&D Systems) and IL-12p70 (Enzo Life Science). All samples and standards were run in duplicate and analyzed using the LUMINEX 200 (LUMINEX), or the BioTek EL800 (BioTek)."}, "GILZ": {"system": "GILZ", "test": "GILZ mRNA expression in CD11c+ MoDC (quantitative real-time PCR)", "assay_type": "cell-based, human", "method": "Monocytes were cultured at a density of 5×10^6 cells/mL in 6- and 12-well polystyrene tissue culture plates at 37° C. and 5% CO2 in RPMI-1640 (Gibco) supplemented with heat-inactivated 15% AB serum (Gemini) and 1% penicillin/streptomycin (now referred to as complete media). 800 IU/mL recombinant human GM-CSF (R&D Systems) and 1000 IU/mL recombinant human IL-4 (R&D Systems) were added to cultures for 36 hr to induce monocyte to DC differentiation as described.\nNon-adherent cells (purity: 66.0±4.5% CD3^+) removed during plastic adherence will now be generally referred to as lymphocytes. Lymphocytes were treated with 8-MOP (100 ng/mL) and UVA (1 J/cm^2), washed with PBS, and co-cultured in complete media at 37° C. and 5% CO2 with either PUVA-treated or untreated-MoDC in a ratio of 5 or 10 lymphocytes to 1 MoDC. […] 24 hr after LPS stimulation, cells were harvested for RNA isolation and immunophenotyping, and supernatants were collected for cytokine quantification.\nRNA was isolated from CD11c^+ MoDC using QIAShredder columns (QIAGEN) and the RNeasy Mini Kit (QIAGEN) with on-column Dnase I treatment (QIAGEN). RNA yield and purity were assessed using a NanoDrop ND-1000 spectrophotometer. cDNA was obtained using the High Capacity cDNA Reverse Transcription Kit (Applied Biosystems) in a 96-well thermocycler (MJ Research PTC-200). […]"}}, "note": "Entries after “also recorded” stand apart in the source; their conditions may differ. At least one structure is not confirmed: it was looked up by name or label, or the drawing left a doubt.", "data": [{"smiles": "C[C@@H]1C[C@H]2[C@@H]3CCC4=CC(=O)C=C[C@]4(C)[C@@]3(F)[C@@H](O)C[C@]2(C)[C@@]1(O)C(=O)CO", "note": "[dexamethasone]", "values": [{"measurement": "IL-10 production", "setting": "MoDC", "result": "increased production of IL-10"}, {"measurement": "Production of pro-inflammatory cytokines and chemokines", "setting": "MoDC", "result": "decreased production of all pro-inflammatory cytokines"}, {"measurement": "GILZ expression in MoDC after dexamethasone (qualitative)", "setting": "GILZ; 24 hr", "result": "dose-dependent manner; also recorded: up-regulated"}, {"measurement": "Time to GILZ up-regulation after treatment", "setting": "GILZ; dexamethasone-treated MoDC", "result": "≤ 2", "unit": "h"}]}]}
